Reference: PubChem BioAssay AID743255 (National Center for Advancing Translational Sciences (NCATS), 2014)
Hit rate of the full screen: of about 390,000 compounds, about 910 (0.23%) were called active. The shares of active, inactive and inconclusive entries below differ from those in the screen. Calls follow the shape of the dose curve; as a rule, active = well fitted inhibition curve with a large enough effect; inconclusive = small, poorly fitted or top-dose-only effect; inactive = no such curve, though single readings can be large or run the other way. A potency beside an inconclusive call is a rough fit, not a confirmed value.

Amino acid sequences for entries named in this document (tags omitted). A change or cut given only in a name is not applied to a line headed by its entry.
UniProt O94782: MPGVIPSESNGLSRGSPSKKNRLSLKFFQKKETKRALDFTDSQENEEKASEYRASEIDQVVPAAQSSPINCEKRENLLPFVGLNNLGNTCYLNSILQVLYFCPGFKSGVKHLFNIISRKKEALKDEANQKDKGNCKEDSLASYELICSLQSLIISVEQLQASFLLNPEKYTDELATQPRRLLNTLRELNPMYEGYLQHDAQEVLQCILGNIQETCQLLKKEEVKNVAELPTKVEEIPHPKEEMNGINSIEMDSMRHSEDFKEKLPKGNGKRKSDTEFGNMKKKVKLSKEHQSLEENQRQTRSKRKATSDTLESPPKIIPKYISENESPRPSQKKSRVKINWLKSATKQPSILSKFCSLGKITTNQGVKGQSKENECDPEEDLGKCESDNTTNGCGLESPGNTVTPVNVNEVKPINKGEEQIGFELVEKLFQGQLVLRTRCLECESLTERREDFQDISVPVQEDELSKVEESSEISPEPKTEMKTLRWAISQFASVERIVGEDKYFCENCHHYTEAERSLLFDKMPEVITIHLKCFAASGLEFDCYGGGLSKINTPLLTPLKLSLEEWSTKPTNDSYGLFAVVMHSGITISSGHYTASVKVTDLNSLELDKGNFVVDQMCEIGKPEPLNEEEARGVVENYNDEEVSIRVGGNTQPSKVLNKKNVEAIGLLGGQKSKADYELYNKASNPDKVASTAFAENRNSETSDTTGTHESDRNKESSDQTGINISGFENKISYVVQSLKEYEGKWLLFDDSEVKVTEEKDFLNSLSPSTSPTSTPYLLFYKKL

Target: Ubiquitin carboxyl-terminal hydrolase 1 (Homo sapiens) (UniProt O94782)
Test: Inhibitors of USP1/UAF1: Primary Screen; also: nearly all actives have a fitted effect of over 60% in size
Details: recombinant USP1/UAF1, Ub-Rhodamine cleavage fluorescence; activity change, negative = inhibition: at 57.1 µM (top of the series)
Method in brief: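 1 nM enzyme complex + cpd, 15 min RT; start with Ub-Rho 150nM final; kinetic fluorescence ex 480/em 540, 6 reads q60 s. Buffer 50mM HEPES pH 7.8, 0.5mM EDTA, 0.1 mg/ml BSA, 1mM TCEP, 0.01% Tween-20.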
% is scaled to controls: 0 for no effect and ±100 for the full control effect; potency is read from the fitted curve at half-maximal effect.

SMILES	Potency	activity change, negative = inhibition
C#CCN(C[C@H]1[C@H](OC(=O)NC2CCCC2)[C@H](OC(=O)NC2CCCC2)C[C@@H](C(=O)OC)[C@H]1C(=O)OC)S(=O)(=O)c1ccc(C)cc1	inconclusive: 89.1 µM [inhibitor, partial curve, poor fit]	–
COc1cc(NC(=O)C(NC(=O)C2CCC(C)CC2)C(C)C)cc(OC)c1OC (configuration not stated)	inconclusive: 44.7 µM [inhibitor, partial curve, poor fit]	–
COc1ccc(NC(=O)CSc2nc3n[nH]c(C)c3c(=N)n2-c2ccc(Cl)c(C)c2)cc1OC	inconclusive: 5.01 µM [inhibitor, full curve]	–
O=C(Nc1ccccc1)C1=C[C@H](c2csc3ccccc23)C[C@H](OCCCCO)O1	inconclusive: 44.7 µM [inhibitor, partial curve]	–
Cn1c(=O)c2c(nc(NCCc3ccccc3)n2Cc2cccc(Br)c2)n(C)c1=O	inconclusive: 28.2 µM [inhibitor, partial curve, poor fit]	–
CN(C)CCN1C(=O)C(O)=C(C(=O)c2cc3ccccc3o2)C1c1ccc(N(C)C)cc1 (configuration not stated)	inconclusive: 6.31 µM [inhibitor, partial curve]	–
Cc1ccccc1C(=O)NC1CC2CCCC(C1)N2CC(C)C (configuration not stated)	inconclusive: 0.316 µM [inhibitor, full curve, poor fit]	–
O=C(NCc1cc(C(F)(F)F)cc(C(F)(F)F)c1)C1CC(c2c(Cl)cccc2Cl)=NO1 (configuration not stated)	inconclusive: 0.251 µM [inhibitor, full curve, poor fit]	–
COCCCn1c(=N)c(C(=O)NC2CCCCC2)cc2c(=O)n3ccccc3nc21	inconclusive: 200 µM [inhibitor, partial curve, poor fit]	–
CC1Cc2ccccc2N1C(=O)COC(=O)c1ccc([N+](=O)[O-])o1 (configuration not stated)	inconclusive: 44.7 µM [inhibitor, partial curve, poor fit]	–
O=C(Nc1nc2ccccc2[nH]1)c1ccc(Br)o1	inconclusive: 28.2 µM [inhibitor, partial curve]	–
CCOC(=O)N1CCN(c2c(NCCN3CCCCC3CC)c(=O)c2=O)CC1 (configuration not stated)	inconclusive: 44.7 µM [inhibitor, partial curve, poor fit]	–
Cc1cccc(CS(=O)(=O)CC2Nc3ccc(C(=O)NCc4ccccc4)cc3NC2=O)c1 (configuration not stated)	inconclusive: 28.2 µM [inhibitor, partial curve]	–
Cc1ccc(S(=O)(=O)N2CCCN(c3nc4cc(C)ccc4cc3C#N)CC2)cc1	inconclusive: 39.8 µM [inhibitor, partial curve, poor fit]	–
O=C(CSc1cn(CC(=O)N2CCOCC2)c2ccccc12)Nc1ccccc1C(F)(F)F	inconclusive: 0.316 µM [inhibitor, full curve, poor fit]	–
COc1ccc(C(=O)NC(=S)Nc2ccc3[nH]c(=O)[nH]c3c2)cc1Br	inconclusive: 0.282 µM [inhibitor, full curve, poor fit]	–
CN(C)c1ccc(/C=C/C(=O)c2ccc(O)cc2)cc1	active: 25.1 µM	–
Cc1cc([N+](=O)[O-])ccc1NC(=O)CSc1nccn1C	inconclusive: 22.4 µM [inhibitor, partial curve]	–
COc1ccc(S(=O)(=O)NCc2ccc3c(c2)OCO3)cc1C(=O)O	–	inactive: -21.6%
O=C(NCC1CCN(Cc2cccc(Cl)c2)CC1)Nc1ccc(Cl)cc1	–	inactive: -22.1%
CCc1nnc(NS(=O)(=O)c2ccc(NC(=O)COc3ccc(Cl)c(C)c3)cc2)s1	inconclusive: 11.2 µM [inhibitor, full curve, poor fit]	–

SMILES	Potency	activity change, negative = inhibition
COc1cccc(Oc2ccc(S(=O)(=O)N3CCOCC3)cc2[N+](=O)[O-])c1	inconclusive: 35.5 µM [inhibitor, single point]	–
O=c1cnn(Cc2ccc(Cl)c(Cl)c2)c2ccccc12	inconclusive: 31.6 µM [inhibitor, partial curve]	–
NN(Cc1ccccc1)C(=S)Nc1ccc(Cl)c(Cl)c1	–	inactive: -22.4%
CN1C(=O)C2CCCCN2c2ccc(C(=O)NCc3ccccc3Br)cc21 (configuration not stated)	inconclusive: 39.8 µM [inhibitor, partial curve, poor fit]	–
Cc1nc(C)c(-c2nnc(-c3cccc(S(=O)(=O)N(C)C)c3)o2)cc1C(=O)NN	inconclusive: 44.7 µM [inhibitor, partial curve, poor fit]	–
COc1cc(/C=C2/C(=O)N(c3ccc(C(=O)O)cc3)N=C2C)cc(OC)c1O	inconclusive: 4.47 µM [inhibitor, full curve, poor fit]	–
Cc1ccc(NC(=O)C2CCN(c3nc4ccccc4[nH]3)CC2)cc1Cl	inconclusive: 8.91 µM [inhibitor, partial curve, poor fit]	–
CCN(CC)CCCSc1nc2ccccc2s1	inconclusive: 39.8 µM [inhibitor, partial curve, poor fit]	–
O=C(N[C@@H]1c2ccccc2CC[C@@H]1OCc1ccccc1)c1ccc(-c2ccccc2)cc1	inconclusive: 4.47 µM [inhibitor, partial curve]	–
COc1ccccc1N(CC(O)CN1CCOCC1)S(=O)(=O)c1ccccc1 (configuration not stated)	–	inactive: -12.1%
Cc1ccc(C(=O)Nc2ccc3c(c2)N(C)C(=O)c2ccccc2S3)cc1F	inconclusive: 15.8 µM [inhibitor, partial curve]	–
CCc1nn(CC(=O)Nc2c(C)cc(C)cc2C)c(=O)c2cc3sccc3n12	–	inactive: -4.68%
O=C(OCC(=O)N1CCN(C(=O)c2ccco2)CC1)c1cc(F)c(F)cc1Cl	inconclusive: 44.7 µM [inhibitor, partial curve, poor fit]	–
Cc1ccc(C(c2sc3nc(-c4ccco4)nn3c2O)N2CCCCC2)cc1 (configuration not stated)	inconclusive: 0.316 µM [inhibitor, full curve]	–
CC(=O)c1ccc(NC(=O)CSc2nc(-c3ccccc3F)nc3c2c(=O)n(C)c(=O)n3C)cc1	inconclusive: 35.5 µM [inhibitor, partial curve, poor fit]	–
Cc1nc2nc(SCC(=O)NCCc3ccc(Cl)cc3)nn2c(C)c1Cc1c(F)cccc1Cl	inconclusive: 1.12 µM [inhibitor, full curve, poor fit]	–
COC(=O)c1ccccc1NC(=O)Cc1nc(-c2ccc(OC)cc2)no1	inconclusive: 0.158 µM [inhibitor, full curve, poor fit]	–
Cc1cc(C)cc(OCC(=O)OCC(=O)N2CC(=O)Nc3ccccc32)c1	inconclusive: 44.7 µM [inhibitor, partial curve, poor fit]	–
COc1cccc(Nc2nc(-c3ccc(O)cc3)cs2)c1	–	inactive: -6.78%
COc1cc2ccccc2cc1C(=O)Nc1ccc2oc(=O)ccc2c1	inconclusive: 56.2 µM [inhibitor, single point]	–
CCN(c1ccc(C)cc1C)S(=O)(=O)c1nnc(NC(=O)c2ccc(F)cc2)s1	inconclusive: 50.1 µM [inhibitor, partial curve, poor fit]	–

SMILES	Potency	activity change, negative = inhibition
Cc1cc(=O)oc2cc(OCC(=O)OCC(=O)N3CCC(C)CC3)ccc12	inconclusive: 0.562 µM [inhibitor, full curve, poor fit]	–
O=c1[nH]n2c(=O)c3c([nH]c2c1N=Nc1ccccc1)CCC3	inconclusive: 39.8 µM [inhibitor, partial curve]	–
O=C(CSc1nc2ccccc2n1Cc1cccc(C(F)(F)F)c1)NCc1ccccc1	inconclusive: 39.8 µM [inhibitor, partial curve]	–
CC(=O)Nc1ccc(NC(=O)CSc2nc3ccccc3c(=O)n2CCCN2CCOCC2)cc1	inconclusive: 6.31 µM [inhibitor, full curve, poor fit]	–
CCCN(CCC)C(=O)CSc1nc2ccccc2c(=O)n1C1CCCC1	inconclusive: 39.8 µM [inhibitor, partial curve]	–
C=CCC(Nc1ccccc1)C12C=CC(O1)C(C(=O)OC)=C2C(=O)OC (configuration not stated)	–	inactive: -33.1%
CCOCCCN(C)C1CCN(C(=O)c2oc3ccccc3c2NC(=O)c2ccc(F)cc2)CC1	–	inactive: -21%
O=C(Nc1ccc(F)c(Cl)c1)C1CCN(c2ncccn2)CC1	inconclusive: 79.4 µM [inhibitor, partial curve, poor fit]	–
O=C1C(=O)N(c2ccccn2)C(c2cccc(F)c2)/C1=C(/O)c1ccccc1 (configuration not stated)	–	inactive: -8.34%
CCN1c2ccccc2-c2nc(SCC(=O)Nc3cc(C)c(Cl)cc3OC)ncc2S1(=O)=O	inconclusive: 7.94 µM [inhibitor, partial curve]	–
CCOC(=O)c1ccc(N/C=C/C(=O)c2ccco2)cc1	inconclusive: 44.7 µM [inhibitor, partial curve, poor fit]	–
CC(Cc1cccc(C(F)(F)F)c1)NCCOC(=O)c1ccccc1 (configuration not stated)	inconclusive: 0.199 µM [inhibitor, full curve]	–
CN(C)CCN=Cc1c(O)n(Cc2ccc3c(c2)OCO3)c(=O)c2ccccc12	–	inactive: -0.835%
CC(=O)c1ccc(OC(=O)/C=C/c2ccccc2)cc1	–	inactive: -17.5%
CC(C)C(=O)N1CCN(c2ccc([N+](=O)[O-])c(NC(C)c3ccccc3)c2)CC1 (configuration not stated)	–	inactive: -15.5%
CC1=NN(c2cccc(C(=O)O)c2)C(=O)/C1=C\C=C/c1ccccc1	inconclusive: 25.1 µM [inhibitor, partial curve]	–
Cc1cc(C)n(C(C[N+](=O)[O-])c2ccc(Cl)cc2)n1 (configuration not stated)	–	inactive: -16.6%
c1ccc(SCCc2ccncc2)cc1	–	inactive: -26.6%
Cc1ccc(NC(=O)Cc2ncon2)cc1Cl	–	inactive: -9.37%
CCOc1ccc(C2=C(C(C)=O)Sc3nnc(C)n3N2C(C)=O)cc1	inconclusive: 20 µM [inhibitor, partial curve]	–

Single records, from the list above:
CC(=O)Nc1ccc(NC(=O)CSc2nc3ccccc3c(=O)n2CCCN2CCOCC2)cc1 is listed as Potency: inconclusive: 6.31 µM [inhibitor, full curve, poor fit]
O=C1C(=O)N(c2ccccn2)C(c2cccc(F)c2)/C1=C(/O)c1ccccc1 (configuration not stated) is listed as activity change, negative = inhibition: inactive: -8.34%
O=c1[nH]n2c(=O)c3c([nH]c2c1N=Nc1ccccc1)CCC3 is listed as Potency: inconclusive: 39.8 µM [inhibitor, partial curve]
Cc1ccc(NC(=O)Cc2ncon2)cc1Cl is listed as activity change, negative = inhibition: inactive: -9.37%
